Experimental findings from publication PMC9080189 are described below.

Amino acid sequences for entries named in this document (tags omitted). A change or cut given only in a name is not applied to a line headed by its entry.
UniProt P46938: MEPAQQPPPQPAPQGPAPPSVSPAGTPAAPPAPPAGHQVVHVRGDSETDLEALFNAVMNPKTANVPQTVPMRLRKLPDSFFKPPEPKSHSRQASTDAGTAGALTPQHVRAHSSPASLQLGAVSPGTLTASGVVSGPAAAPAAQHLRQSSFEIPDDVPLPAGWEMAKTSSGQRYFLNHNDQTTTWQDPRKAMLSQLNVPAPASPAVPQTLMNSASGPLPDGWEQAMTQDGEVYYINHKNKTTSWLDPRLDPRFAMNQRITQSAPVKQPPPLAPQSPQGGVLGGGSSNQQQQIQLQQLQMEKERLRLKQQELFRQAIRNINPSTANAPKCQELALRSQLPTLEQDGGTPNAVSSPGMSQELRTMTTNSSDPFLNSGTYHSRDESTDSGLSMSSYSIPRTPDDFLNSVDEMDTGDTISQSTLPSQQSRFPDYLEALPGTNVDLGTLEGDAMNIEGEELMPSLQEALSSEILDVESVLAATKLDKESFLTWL
UniProt O54785: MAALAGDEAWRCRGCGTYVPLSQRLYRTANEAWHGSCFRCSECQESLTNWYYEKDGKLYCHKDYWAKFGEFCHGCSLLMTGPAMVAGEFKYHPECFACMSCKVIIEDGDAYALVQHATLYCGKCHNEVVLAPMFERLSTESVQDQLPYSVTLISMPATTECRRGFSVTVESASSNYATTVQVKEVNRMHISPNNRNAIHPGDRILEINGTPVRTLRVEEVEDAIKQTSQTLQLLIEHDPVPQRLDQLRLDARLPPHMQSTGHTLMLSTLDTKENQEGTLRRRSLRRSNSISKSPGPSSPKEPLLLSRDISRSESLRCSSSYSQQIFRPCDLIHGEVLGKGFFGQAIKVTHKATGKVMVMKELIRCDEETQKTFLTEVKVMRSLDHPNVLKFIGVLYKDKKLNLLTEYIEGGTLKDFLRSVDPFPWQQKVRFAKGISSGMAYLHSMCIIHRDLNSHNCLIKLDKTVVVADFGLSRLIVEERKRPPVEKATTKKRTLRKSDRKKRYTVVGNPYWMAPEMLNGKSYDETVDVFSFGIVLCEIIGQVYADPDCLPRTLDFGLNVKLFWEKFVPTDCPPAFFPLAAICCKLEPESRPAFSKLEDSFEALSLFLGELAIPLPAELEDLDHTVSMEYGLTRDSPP

These are yes or no findings as the source states them, for the method shown. In cells and extracts the contact can be indirect. Some results given as binding are weak or reduced against the parent protein; the word gives no strength.

The target of assay [1] is T1, full-length CDX2 (expressed in SH-SY5Y cells) (mouse) (UniProt P43241).
T1 sequence: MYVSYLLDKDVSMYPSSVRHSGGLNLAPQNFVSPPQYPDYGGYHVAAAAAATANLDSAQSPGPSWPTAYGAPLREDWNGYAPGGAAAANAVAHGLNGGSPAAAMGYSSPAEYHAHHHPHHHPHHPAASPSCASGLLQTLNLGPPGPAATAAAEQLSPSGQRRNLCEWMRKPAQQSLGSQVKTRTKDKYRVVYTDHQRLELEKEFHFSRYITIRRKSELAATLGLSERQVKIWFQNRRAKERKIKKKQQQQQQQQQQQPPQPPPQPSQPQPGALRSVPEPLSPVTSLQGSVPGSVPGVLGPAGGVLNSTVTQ
As to the kind of experiment: co-IP; SH-SY5Y cells transfected with full-length CDX2 or ΔCDX2 along with full-length YAP, 48 h; IP with anti-FLAG antibody, blot with anti-YAP.

Assay [2] concerns the target YAP (Yes-associated protein), endogenous in trophoblast stem cells (mouse (endogenous in TSCs)) (UniProt P46938). The experiment in a line: co-IP; endogenous proteins, TSC lysate (250 μg, overnight at 4 °C); IP with anti-YAP antibody, western blot with anti-CDX2; isotype matched antibody as negative control. In general terms: A western blot detects proteins with antibodies after separation by electrophoresis.

In assay [3] the target is FLAG-tagged full-length YAP (expressed in TSCs) (mouse) (UniProt P46938). The experiment in a line: co-IP; lysates of TSCs transfected with FLAG-tagged full-length YAP or YAP deletion constructs; IP with anti-FLAG antibody, immunoblot with anti-CDX2 (endogenous CDX2); isotype matched antibody as negative control.
For assay [4], the target named is LIMK2 (LIM domain kinase 2), endogenous in trophoblast cells (mouse (endogenous in TSCs and differentiated trophoblast cells)) (UniProt O54785). As to the kind of experiment: co-IP; reverse co-IP, endogenous proteins of trophoblast cells; IP with anti-LIMK2 antibody, western blot with anti-LATS1.

Regarding “full-length YAP (expressed in SH-SY5Y cells) (from UniProt P46938-1 1-488)”, in assay [1], the binding result is “binds”.

B1: CDX2 (Caudal type homeobox 2), endogenous in trophoblast stem cells (protein, UniProt P43241 1-311)
chain: MYVSYLLDKDVSMYPSSVRHSGGLNLAPQNFVSPPQYPDYGGYHVAAAAAATANLDSAQSPGPSWPTAYGAPLREDWNGYAPGGAAAANAVAHGLNGGSPAAAMGYSSPAEYHAHHHPHHHPHHPAASPSCASGLLQTLNLGPPGPAATAAAEQLSPSGQRRNLCEWMRKPAQQSLGSQVKTRTKDKYRVVYTDHQRLELEKEFHFSRYITIRRKSELAATLGLSERQVKIWFQNRRAKERKIKKKQQQQQQQQQQQPPQPPPQPSQPQPGALRSVPEPLSPVTSLQGSVPGSVPGVLGPAGGVLNSTVTQ
For the molecule B1, the binding result in assay [2] and in assay [3] was “binds” in each case.

B2: LATS1 (Large tumor suppressor kinase 1), endogenous in trophoblast cells (protein, UniProt Q8BYR2 1-1129)
chain: MKRGEKPEGYRQMRPKTFPASNYPGSSRQMLQEIRESLRNLSKPSDASKAEHNLNKMSTEDPRQVRNPPKFGTHHKALQEIRNSLLPFANETSSSRSPSEVNPQMFQDLQAAGFDEDMVIQALQKTNNRSIEAAVEFISKMSYQDPRREQMSAAAARPINATMKPGNVQHSINRKQSWKGSKESLVPQRHGPSLGENVVYRSESPNSQADVGRPLSGSGIAAFAQAHPSNGQRVNPPPPPQVRSVTPPPPPRGQTPPPRGTTPPPPSWEPSSQTKRYSGNMEYVISRISPVPPGAWQEGYPPPPLTTSPMNPPSQAQRAISSVPVGRQPIIMQSTSKFNFTPGRPGVQNGGGQSDFIVHQNVPTGSVTRQPPPPYPLTPANGQSPSALQTGASAAPPSFANGNVPQSMMVPNRNSHNMELYNINVPGLQTAWPQSSSAPAQSSPSGGHEIPTWQPNIPVRSNSFNNPLGSRASHSANSQPSATTVTAITPAPIQQPVKSMRVLKPELQTALAPTHPSWMPQPVQTVQPTPFSEGTASSVPVIPPVAEAPSYQGPPPPYPKHLLHQNPSVPPYESVSKPCKDEQPSLPKEDDSEKSADSGDSGDKEKKQITTSPITVRKNKKDEERRESRIQSYSPQAFKFFMEQHVENVLKSHQQRLHRKKQLENEMMRVGLSQDAQDQMRKMLCQKESNYIRLKRAKMDKSMFVKIKTLGIGAFGEVCLARKVDTKALYATKTLRKKDVLLRNQVAHVKAERDILAEADNEWVVRLYYSFQDKDNLYFVMDYIPGGDMMSLLIRMGIFPENLARFYIAELTCAVESVHKMGFIHRDIKPDNILIDRDGHIKLTDFGLCTGFRWTHDSKYYQSGDHPRQDSMDFSNEWGDPSNCRCGDRLKPLERRAARQHQRCLAHSLVGTPNYIAPEVLLRTGYTQLCDWWSVGVILFEMLVGQPPFLAQTPLETQMKVINWQTSLHIPPQAKLSPEASDLIIKLCRGPEDRLGKNGADEIKAHPFFKTIDFSSDLRQQSASYIPKITHPTDTSNFDPVDPDKLWSDGSEEENISDTLNGWYKNGKHPEHAFYEFTFRRFFDDNGYPYNYPKPIEYEYIHSQGSEQQSDEDDQHTSSDGNNRDLVYV
B2: the binding entry in assay [4] is “binds”.
